# Laboratory results published in ChEMBL document CHEMBL1649351, “Synthesis, in vitro antimicrobial and in vivo antitumor evaluation of novel pyrimidoquinolines and its nucleoside derivatives” (Eur J Med Chem, 2011).
# Tested on: Candida albicans
# Assay: Antifungal activity against Candida albicans at 50 mg/disk after 5 days by agar disk diffusion method
# Assay type: functional
sequence,measurement,value
NYSTATIN,inhibition zone (IZ),20 mm
